According to PubChem BioAssay AID2417 (National Center for Advancing Translational Sciences (NCATS), 2010):
Hit rate of the full screen: of about 140,000 compounds, about 4,300 (3.1%) were called active. Inconclusive means that the source gave no clear call. Such entries were picked first, then a sample of the others.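 Rule for the calls: active = readout at or below -70, meaning at least 70% loss of cells showing the perinucleolar compartment, a nuclear body marking cancer cells; inconclusive = readout between -30 and a set limit; inactive = the rest.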

test: High Content Assay for Compounds that inhibit the Assembly of the Perinucleolar Compartment; conditions: PC3M PTB-GFP, PNC prevalence imaging, 16 h; at 10 µM; hits give low values;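 note: plate controls were DMSO wells for no effect and camptothecin positive control wells for full effect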
Method in brief: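 PC3M cells stably expressing PTB-GFP, 750–1000 cells/well, treated 16 h at 37 °C with compound (23 nl of library stock), in duplicate. After paraformaldehyde fixation and Hoechst stain, imaged at 20x; PNC prevalence scored by image analysis.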

Row | Compound | activity change (PNC), negative = inhibition
1 | O=C(c1ccc(Cn2cc(Br)cn2)cc1)N1N=C(C(F)F)CC1(O)C(F)F (stereo unspecified) | inactive: 7.63%
2 | O=C(COc1ccccc1)N/N=C/c1cc2c(cc1[N+](=O)[O-])OCO2 | inconclusive: -54.1%
3 | Cc1c(C(=O)NCC(C)C)sc2nc(-c3ccc(F)cc3)cn12 | inactive: 21%
4 | COCC(C)n1c(C)cc(C(=O)COC(=O)c2ccc3c(c2)NC(=O)CS3)c1C (stereo unspecified) | inconclusive: -44.5%
5 | CC1CCCC(C)N1Cc1cn2ccccc2n1 (stereo unspecified) | inconclusive: -47.9%
6 | CC(NC(=O)C1CCC1)c1ccc2c(c1)OCO2 (stereo unspecified) | inactive: 28.1%
7 | COCC(=O)Nc1nc2ccc(S(C)(=O)=O)cc2s1 | inconclusive: -34.8%
8 | O=C(COc1ccccc1Br)NCc1ccccn1 | inactive: -26.5%
9 | CCCCCCCCNC(=O)CC(NS(=O)(=O)c1ccc(NC(C)=O)cc1)C(C)C (stereo unspecified) | inconclusive: -37.1%
10 | CCOc1nc(OCC)nc(N2CCC(C)CC2)n1 | inactive: 38.2%
11 | CCc1ccc(OCC(=O)N/N=C(\C)c2ccc(-n3ccnc3)cc2)cc1 | inactive: 24.8%
12 | COc1ccc(-c2nc(NC(=O)c3n[nH]c(=O)c4ccccc34)sc2C)cc1 | active: -114%
13 | Cc1cccc(C(=O)NC2CC3CCCC(C2)N3C(=O)NC2CCCCC2)c1 (stereo unspecified) | inconclusive: -60.3%
14 | COc1ccccc1/C=N/NC(=O)c1[nH]c(C)c(C(=O)N/N=C/c2ccccc2OC)c1C | inconclusive: -56.7%
15 | S=c1[nH]nc([C@@H]2C[C@H]2c2ccccc2)n1-c1ccccc1 | inconclusive: -63.2%
16 | C=CCNC(=O)c1ccc(Cn2c(=S)[nH]c3cc4c(cc3c2=O)OCO4)cc1 | inactive: -21.9%
17 | O=C(COc1ccc(Br)cc1Cl)NC(=S)N1CCc2ccccc21 | inactive: -17.9%
18 | CCCCc1c(O)n2c(nc3ccccc32)[nH]c1=O | inconclusive: -48.2%
19 | NC(=O)C1CCN(CC(=O)Nc2ccccn2)CC1 | inconclusive: -44.8%
20 | Brc1ccc(/C=N/Nc2ccccc2)cc1 | inactive: 6.45%
21 | Cc1ccc(C(=O)ONc2ccc(N=NC(=O)c3ccccc3O)cc2)cc1 | inactive: 28.1%
22 | Cc1ccc(NC(=O)C(=O)c2c(-c3ccccc3)cc3ccccn23)cc1S(=O)(=O)N1CCOCC1 | inconclusive: -36.3%
23 | O=C(COc1ccc(Cl)cc1)OCC(=O)N1CCCCCC1 | inconclusive: -49.6%

Row | Compound | activity change (PNC), negative = inhibition
24 | O=C1NC(c2ccccc2)=C(c2ccccc2)C1=O | inconclusive: -47.4%
25 | O=C(CSc1cc([N+](=O)[O-])cc(S(=O)(=O)Cc2ccccc2)c1)NC1CC1 | inconclusive: -60.2%
26 | CN(CCc1ccccn1)c1ncnc2[nH]ncc12 | inconclusive: -71.6%
27 | Cc1cccn2c(=O)c(/C=C(\C#N)C(=O)NC3CCS(=O)(=O)C3)c(N3CCC(C(N)=O)CC3)nc12 (stereo unspecified) | inactive: -24.7%
28 | CCOC(=O)C1CCCC(NS(=O)(=O)c2ccc(NC(C)=O)cc2)C1 (stereo unspecified) | inconclusive: -37.8%
29 | CCOc1ccccc1Nc1nnc(SC(C)C(=O)Nc2nc(-c3ccccc3)cs2)s1 (stereo unspecified) | inconclusive: -49.2%
30 | Cc1ccc(S(=O)(=O)NC2=NCCC2)cc1 | inactive: 8.58%
31 | Cc1cccc(N2CCN(C(=O)c3cc4c(=O)n(C)c5ccccc5c4n3C)CC2)c1C | inconclusive: -40%
32 | COC(=O)c1scc(C)c1N/N=C(\C)c1ccc(F)cc1 | inconclusive: -43.9%
33 | O=C(CN(CC1CCCO1)S(=O)(=O)c1ccc(S(=O)(=O)NCC2CCCO2)cc1)Nc1ccccc1 (stereo unspecified) | inconclusive: -35.5%
34 | O=C(Nc1ccccc1)C1CCCN(S(=O)(=O)c2ccc(-n3cnnn3)cc2)C1 (stereo unspecified) | inactive: -21.5%
35 | O=C(Nc1cnn(Cc2ccc(F)cc2)c1)c1cnccn1 | active: -129%
36 | Cc1cccc(/C=N/NC(=O)NC2CCCCC2)c1 | inconclusive: -55.6%
37 | CCc1cccc(OCCN2CCCC2)c1 | inconclusive: -62.8%
38 | Cc1ccc(NC(=O)c2c([N+](=O)[O-])c(C(C)(C)C)nn2C)c(C)c1 | inconclusive: -63.5%
39 | Cc1ccccc1Nc1cc(=O)oc2ccccc12 | inactive: -22.7%
40 | Cc1cc(Cl)c(S(N)(=O)=O)cc1OCC(N)=O | inconclusive: -63.8%
41 | COc1ccccc1NC(=O)c1ccc(NC(=O)COC(=O)CC(NC(=O)c2ccccc2Cl)c2ccccc2)cc1 (stereo unspecified) | inactive: 11%
42 | COc1ccccc1NC(=O)c1cc2n(n1)C(C(F)(F)F)CC(c1ccc3c(c1)OCO3)N2 (stereo unspecified) | inconclusive: -54.6%
43 | COc1ccc(CCNC(=O)CN(c2ccccc2OC)S(C)(=O)=O)cc1OC | inconclusive: -32.4%
44 | COC(=O)c1c(N)sc(C(C)=O)c1C | inconclusive: -36.3%
45 | CCC1(CC)C(=O)NC(=O)NC1=NCCc1c[nH]c2ccccc12 | inactive: 13.2%
46 | CCC1Oc2ccccc2N(CC(=O)NCCc2ccc(OC)c(OC)c2)C1=O (stereo unspecified) | inconclusive: -43.9%

3 compounds from above, arranged by heavy-atom count, low to high:
Row | Compound | activity change (PNC), negative = inhibition
35 | O=C(Nc1cnn(Cc2ccc(F)cc2)c1)c1cnccn1 | active: -129%
13 | Cc1cccc(C(=O)NC2CC3CCCC(C2)N3C(=O)NC2CCCCC2)c1 (stereo unspecified) | inconclusive: -60.3%
43 | COc1ccc(CCNC(=O)CN(c2ccccc2OC)S(C)(=O)=O)cc1OC | inconclusive: -32.4%
